Results published in PubChem BioAssay AID687031 (Broad Institute, 2013).
Hit rate of the full screen: of about 1,400 compounds, about 50 (4%) were called active.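 Rule for the calls: active = fitted curve reaches 30% CPE protection at or below the top valid dose, with every test run called active; inconclusive = test runs disagree, some active and some not; inactive = every test run inactive, including effects in the wrong direction.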 This is one part of the list. Results with a measured potency or affinity are listed apart.

Test: antiviral rescue of DENV2-infected BHK-21 cells – cell-based, ATP luminescence, cherry-pick, dose response (AID 687031);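 note: 0% = infected DMSO wells and 100% = uninfected cell wells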
Details: BHK-21 DENV2 CPE protection, 5 d; at 19.5 µM (top of the series) unless noted

**Q.** For `Cc1ccc(CN2CCCOCCS2(=O)=O)cc1`, which CPE protection (higher = active) is on record?
**A.** Its CPE protection (higher = active) is inactive: 24.4%.

**Q.** For `CS(=O)(=O)N1CCc2cc(C(=O)N3CCN(c4ccccc4)CC3)ccc21`, which CPE protection (higher = active) is on record?
**A.** The CPE protection (higher = active) was inactive: 14.1%.

**Q.** Which CPE protection (higher = active) does the source give for `O=C1CCCC(c2ccccc2)N1` (stereo unspecified) here?
**A.** The CPE protection (higher = active) was inactive: -8.5%.

**Q.** With `CN(CC(=O)Nc1ccccc1Cl)C(=O)COC(=O)c1cccs1` as the compound, how does the CPE protection (higher = active) read?
**A.** Its CPE protection (higher = active) is inactive: -9.78%.

**Q.** With `COc1ccc2c3c(n(C)c2c1)[C@H](CO)N(Cc1ccccc1F)CC31CCN(C(C)=O)CC1` as the compound, how does the CPE protection (higher = active) read?
**A.** The CPE protection (higher = active) was inactive: -20.8%.

**Q.** Which CPE protection (higher = active) does the source give for `CN1CCC2CC1c1cc(-c3ccc(C(F)(F)F)cc3)ccc12` (stereo unspecified) here?
**A.** The CPE protection (higher = active) was inactive: -7.74%.

**Q.** With `COc1ccccc1CN1CC(C(=O)NCc2nccn2C)CCC1=O` (stereo unspecified) as the compound, how does the CPE protection (higher = active) read?
**A.** The CPE protection (higher = active) was inactive: -3.12%.

**Q.** Which CPE protection (higher = active) does the source give for `COc1ccc(CCC(C)NCc2ccc(F)cc2)cc1` (stereo unspecified) here?
**A.** Its CPE protection (higher = active) is inactive: 18.5%.

**Q.** Which CPE protection (higher = active) does the source give for `C[C@@H]1CCCCO[C@H](CN(C)C(=O)NC2CCCCC2)[C@@H](C)CN([C@H](C)CO)C(=O)c2cc(NC(=O)CCCCCC(=O)Nc3ccccc3N)ccc2O1` here?
**A.** Its CPE protection (higher = active) is inactive: -29.3% [at 21 µM].

**Q.** For `Cc1cc(=O)oc2c(C)c(OC(C)C(=O)NC(Cc3c[nH]c4ccc(O)cc34)C(=O)O)ccc12` (stereo unspecified), which CPE protection (higher = active) is on record?
**A.** The CPE protection (higher = active) was inactive: -4.33%.

**Q.** Which CPE protection (higher = active) does the source give for `CNC(=O)C1(C)C=CC2(CCCCC2)N1C(=O)OC` (stereo unspecified) here?
**A.** Its CPE protection (higher = active) is inactive: 1.07%.

**Q.** With `COc1ccc2c(=O)cc(-c3ccncc3)oc2c1OC` as the compound, how does the CPE protection (higher = active) read?
**A.** Its CPE protection (higher = active) is inactive: -1.7%.

**Q.** With `COc1cc(C(=O)OCCCN2CCOCC2)cc(OC)c1OC` as the compound, how does the CPE protection (higher = active) read?
**A.** Its CPE protection (higher = active) is inactive: -14.2%.

**Q.** For `CCCCn1nc(C(=O)Nc2ccc3c(c2)OCO3)c2ccccc2c1=O`, which CPE protection (higher = active) is on record?
**A.** Its CPE protection (higher = active) is inactive: -6.73%.

**Q.** With `O=C(Nc1ccn(CC(=O)N2CCN(c3ccccn3)CC2)c(=O)n1)OCc1ccccc1` as the compound, how does the CPE protection (higher = active) read?
**A.** The CPE protection (higher = active) was inactive: -15.4%.

**Q.** With `CN1CCN(CCOc2ccc(-c3ccccc3)cc2)CC1` as the compound, how does the CPE protection (higher = active) read?
**A.** Its CPE protection (higher = active) is inactive: -14.5%.

**Q.** For `COc1cccc(N2CCN(C(=O)c3cccc(NC4=NC5CS(=O)(=O)CC5S4)c3)CC2)c1` (stereo unspecified), which CPE protection (higher = active) is on record?
**A.** The CPE protection (higher = active) was inactive: 9.98%.

**Q.** With `Cc1cnc(NC(=O)C2CC(=O)N(c3cccc(Cl)c3)C2)s1` (stereo unspecified) as the compound, how does the CPE protection (higher = active) read?
**A.** The CPE protection (higher = active) was inactive: 4.01%.

**Q.** For `CCCn1c(NCc2ccc(N(C)C)cc2)nc2ccccc21`, which CPE protection (higher = active) is on record?
**A.** The CPE protection (higher = active) was inactive: -13.2%.

**Q.** Which CPE protection (higher = active) does the source give for `CN1C(c2ccccc2)CCOS1(=O)=O` (stereo unspecified) here?
**A.** The CPE protection (higher = active) was inactive: -17.1%.

**Q.** Which CPE protection (higher = active) does the source give for `Cc1ccc(Cl)cc1N1CCN(CC(O)COC(C)C)CC1` (stereo unspecified) here?
**A.** Its CPE protection (higher = active) is inactive: 4.86%.

**Q.** Which CPE protection (higher = active) does the source give for `CCc1ccc(O)c(CNCCNCc2cc(CC)ccc2O)c1` here?
**A.** Its CPE protection (higher = active) is inactive: -15.9%.

**Q.** Which CPE protection (higher = active) does the source give for `O=c1cc(CSc2nnc(-c3ccccc3)o2)c2ccccc2[nH]1` here?
**A.** Its CPE protection (higher = active) is inactive: -8.63%.

**Q.** Which CPE protection (higher = active) does the source give for `O=C(c1ccccc1Br)N1CCN(Cc2ccc3c(c2)OCO3)CC1` here?
**A.** The CPE protection (higher = active) was inactive: 12%.

**Q.** With `COc1ccc(NC(=O)COC(=O)c2c(C)noc2C)cc1Cl` as the compound, how does the CPE protection (higher = active) read?
**A.** Its CPE protection (higher = active) is inactive: 11.1%.

**Q.** Which CPE protection (higher = active) does the source give for `COc1ccc(NC(=O)C(OC(=O)c2cnc(C)cn2)c2ccccc2)cc1Cl` (stereo unspecified) here?
**A.** The CPE protection (higher = active) was inactive: -0.469%.
